Results on 14 molecules are retold here after patent publication US20210087281A1 (AGOMAB THERAPEUTICS, published 2021).

First the molecules themselves.
B1: 71D6 chimeric llama-human IgG1 mAb (antibody, V domains shown)
VH: ELQLVESGGGLVQPGGSLRLSCAASGFTFSSYGMSWVRQAPGKGLEWVSAINSYGGSTSYADSVKGRFTISRDNAKNTLYLQMNSLKPEDTAVYYCAKEVRADLSRYNDYESYDYWGQGTQVTVSS
VL: QPVLNQPSALSVTLGQTAKITCQGGSLGARYAHWYQQKPGQAPVLVIYDDDSRPSGIPERFSGSSSGGTATLTISGAQAEDEGDYYCQSADSSGSVFGGGTHLTVL
notes: llama VH on human IgG1 CH1-CH2-CH3, llama VL on human lambda CL
B2: 71C3 chimeric llama-human IgG1 mAb (antibody, V domains shown)
VH: B1 VH with E1Q, Y32H, G33A, Y54G, V100L, A102F, S105A, N108T, S112A, Y113W
VL: SYELTQPSALSVTLGQTAKITCQGGSLGSSYAHWYQQKPGQAPVLVIYDDDSRPSGIPERFSGSSSGGTATLTISGAQAEDEGDYYCQSADSSGNAAVFGGGTHLTVL
notes: as for B1
B3: 71D4 chimeric llama-human IgG1 mAb (antibody, V domains shown)
VH: B1 VH with S31G, A50D, Y54G, E99D, V100M, A102L, D103Y, S105A, S112A, Y113W
VL: B2 VL with Y2S, E3A
notes: as for B1
B4: 76H10 chimeric llama-human IgG1 mAb (antibody, V domains shown)
VH: QLQLVESGGGLVQPGGSLRVSCTASGFTFNTYYMTWVRQAPGKGLEWVSDINSGGGTYYADSVKGRFTISRDNAKNTLYLQMNSLKPEDTALYYCVRVRIWPVGYDYWGQGTQVTVSS
VL: QAVVTQEPSLSVSPGGTVTLTCGLSSGSVTTSNYPGWFQQTPGQAPRTLIYNTNNRHSGVPSRFSGSISGNKAALTITGAQPEDEADYYCSLYTGSYTTVFGGGTHLTVL
notes: as for B1
B5: 71G3 chimeric llama-human IgG1 mAb (antibody, V domains shown)
VH: QVQLVESGGGLVQPGGSLRVSCAASGFTFSTYYMSWVRQAPGKGLEWVSDIRTDGGTYYADSVKGRFTMSRDNAKNTLYLQMNSLKPEDTALYYCARTRIFPSGYDYWGQGTQVTVSS
VL: QAVVTQEPSLSVSPGGTVTLTCGLSSGSVTTSNYPGWFQQTPGQAPRTLIYNTNSRHSGVPSRFSGSISGNKAALTIMGAQPEDEADYYCSLYPGSTTVFGGGTHLTVL
notes: as for B1
B6: 76G7 Fab (Fab, V domains shown)
VH: QVQLVESGGNLVQPGGSLRLSCAASGFTFSNYYMSWVRQAPGKGLEWVSDIYSDGSTTWYSDSVKGRFTISRDNAKNTLSLQMNSLKSEDTAVYYCARVKIYPGGYDAWGQGTQVTVSS
VL: QAGLTQPPSVSGSPGKTVTISCAGNSSDVGYGNYVSWYQQFPGMAPKLLIYLVNKRASGITDRFSGSKSGNTASLTISGLQSEDEADYYCASYTGSNNIVFGGGTHLTVL
notes: llama Fab (VH-CH1 and lambda VL-CL) with MYC flag, crude periplasmic extract
B7: 72F8 Fab (Fab, V domains shown)
VH: ELQLVESGGGLVQPGGSLRLSCAASGFTFSNYVMSWVRQAPGKGLEWVSDTNSGGSTSYADSVKGRFTISRDNAKNTLYLQMNSLKPEDTALYYCARSFFYGMNYWGKGTQVTVSS
VL: QSALTQPPSLSASPGSSVRLTCTLSSGNNIGSYDISWYQQKAGSPPRYLLNYYTDSRKHQDSGVPSRFSGSKDASANAGLLLISGLQPEDEADYYCSAYKSGSYRWVFGGGTHVTVL
notes: as for B6
B8: 71C3 Fab (Fab, V domains shown)
VH: B1 VH with E1Q, Y32H, G33A, Y54G, V100L, A102F, S105A, N108T, S112A, Y113W
VL: B2 VL
notes: as for B6
B9: 71D6 Fab (Fab, V domains shown)
VH: B1 VH
VL: B1 VL
notes: as for B6
B10: 71D4 Fab (Fab, V domains shown)
VH: B1 VH with S31G, A50D, Y54G, E99D, V100M, A102L, D103Y, S105A, S112A, Y113W
VL: B2 VL with Y2S, E3A
notes: as for B6
B11: 71G2 Fab (Fab, V domains shown)
VH: EVQLQESGGGLVQPGGSLRLSCAASGFTFSIYDMSWVRQAPGKGLEWVSTINSDGSSTSYVDSVKGRFTISRDNAKNTLYLQMNSLKPEDTAVYYCAKVYGSTWDVGPMGYGMDYWGKGTLVTVSS
VL: SSALTQPSALSVSLGQTARITCQGGSLGSSYAHWYQQKPGQAPVLVIYGDDSRPSGIPERFSGSSSGGTATLTISGAQAEDEDDYYCQSTDSSGNTVFGGGTRLTVL
notes: as for B6
B12: 76H10 Fab (Fab, V domains shown)
VH: B4 VH
VL: B4 VL
notes: as for B6
B13: 71G3 Fab (Fab, V domains shown)
VH: B5 VH
VL: B5 VL
notes: as for B6
B14: 71A3 Fab (Fab, V domains shown)
VH: EVQLVESGGGLVQPGGSLRLSCAASGFSFKDYDITWVRQAPGKGLEWVSTITSRSGSTSYVDSVKGRFTISGDNAKNTLYLQMNSLKPEDTAVYYCAKVYATTWDVGPLGYGMDYWGKGTLVTVSS
VL: B2 VL
notes: as for B6

Changes are numbered by the printed parent chain. These are yes or no findings as the source states them, for the method shown. For some of these results: A result given as binding can be weak or reduced; the word gives no strength.

For one experiment, the target named is T1, human MET ECD (human, UniProt P08581 25-932).
T1 construct: range 1-932; recombinant ECD made by the applicants; the stated range begins at residue 1, so it includes the signal peptide of the entry; also called hMET; hMET ECD
In words: ELISA, MET ECD in solid phase. In general terms: ELISA stands for enzyme-linked immunosorbent assay.
Turning to B1, the binding result is on record as “binds”.
Still for that read-out and setting: then B2, with “binds”.
As to B3, the binding result is recorded as “binds”.
In the case of B4, the binding entry is on record as “binds”.
As for B5, the binding result is listed as “binds”.

The target in another experiment is T2, mouse MET ECD (mouse, UniProt P16056 25-931).
T2 construct: range 1-931; recombinant ECD made by the applicants; the stated range begins at residue 1; also called mMET; mMET ECD
The experiment can be described thus: ELISA, MET ECD in solid phase.
For B1, the binding result was “binds”.
Same read-out and setting: then B2, with “binds”; and B3, with “binds”.
Consider B4, for which the binding entry is listed as “binds”.
Same read-out and setting: then B5, with “binds”.

A further experiment deals with T1, human MET ECD. In words: SPR and ELISA, periplasmic Fab.
With B6, the binding entry is given as “binds”.
As to B7, the binding entry is given as “binds”.
On the same count and under the same terms, then B8, with “binds”.
On to B9, for which the binding entry is on record as “binds”.
The same measure, in the same setting: then B10, with “binds”.
The same measure, in the same setting: then B11, with “binds”; and B12, with “binds”.
In the case of B13, the binding entry was “binds”.
Same read-out and setting: then B14, with “binds”.

For a further experiment, the target named is T2, mouse MET ECD. In words: SPR and ELISA, periplasmic Fab.
As for B6, the binding entry is “binds”.
Same read-out and setting: then B7, with “binds”.
Take B8: the binding entry is on record as “binds”.
The same measure, in the same setting: then B9, with “binds”; and B10, with “binds”.
As for B11, the binding entry is reported as “binds”.
Take B12: the binding entry is on record as “binds”.
As to B13, the binding entry is reported as “binds”.
The same measure, in the same setting: then B14, with “binds”.

The target of another experiment is llama-human MET chimeric protein CH7. The experiment can be described thus: ELISA, protein in solid phase.
In the case of B1, the binding result is “binds”.
On the same count and under the same terms, then B2, with “binds”.
Same read-out and setting: then B3, with “binds”; and B4, with “no binding (tested: 0-20 nM)”.
On the same count and under the same terms, then B5, with “no binding (tested: 0-20 nM)”.

The next experiment deals with llama MET ECD (llama). The experiment can be described thus: ELISA, protein in solid phase.
Turning to B1, the binding entry is “no binding (tested: 0-20 nM)”.
Consider B2, for which the binding result is recorded as “no binding (tested: 0-20 nM)”.
Still for that read-out and setting: then B3, with “no binding (tested: 0-20 nM)”.
The same measure, in the same setting: then B4, with “no binding (tested: 0-20 nM)”; and B5, with “no binding (tested: 0-20 nM)”.

The target of the next experiment is llama-human MET chimeric protein CH2. In words: ELISA, protein in solid phase.
As for B1, the binding result is given as “binds”.
The same measure, in the same setting: then B2, with “binds”; and B3, with “binds”; and B4, with “binds”.
The same measure, in the same setting: then B5, with “binds”.

In another experiment the target is T1, human MET ECD. In words: ELISA, protein in solid phase.
As to B1, the binding result is on record as “binds”.
For B2, the binding result is listed as “binds”.
Same read-out and setting: then B3, with “binds”; and B4, with “binds”.
Same read-out and setting: then B5, with “binds”.

The target of the next experiment is llama-human MET chimeric protein CH1. The experiment can be described thus: ELISA, protein in solid phase.
B1: the binding entry was “binds”.
With B2, the binding entry is recorded as “binds”.
With B3, the binding entry was “binds”.
On the same count and under the same terms, then B4, with “binds”.
Still for that read-out and setting: then B5, with “binds”.

Another experiment has as its target llama-human MET chimeric protein CH3. In words: ELISA, protein in solid phase.
Take B1: the binding result is “binds”.
With B2, the binding entry is given as “binds”.
B3: the binding result is on record as “binds”.
B4: the binding result was “binds”.
On to B5, for which the binding entry was “binds”.

The target of a further experiment is llama-human MET chimeric protein CH6. The experiment can be described thus: ELISA, protein in solid phase.
In the case of B1, the binding result is given as “binds”.
The same measure, in the same setting: then B2, with “binds”.
Consider B3, for which the binding entry is reported as “binds”.
On to B4, for which the binding result was “no binding (tested: 0-20 nM)”.
The same measure, in the same setting: then B5, with “no binding (tested: 0-20 nM)”.

The next experiment concerns the target llama-human MET chimeric protein CH5. The experiment can be described thus: ELISA, protein in solid phase.
Consider B1, for which the binding entry was “no binding (tested: 0-20 nM)”.
With B2, the binding entry was “no binding (tested: 0-20 nM)”.
As to B3, the binding result is listed as “no binding (tested: 0-20 nM)”.
Take B4: the binding entry is recorded as “binds”.
As for B5, the binding result is listed as “binds”.

The target of the next experiment is llama-human MET chimeric protein CH4. In words: ELISA, protein in solid phase.
Regarding B1, the binding entry was “no binding (tested: 0-20 nM)”.
Same read-out and setting: then B2, with “no binding (tested: 0-20 nM)”; and B3, with “no binding (tested: 0-20 nM)”.
As for B4, the binding entry is listed as “binds”.
As for B5, the binding result is listed as “binds”.
